Laboratory results reported in paper PMC12292949.
No constants are given. Whether binding was seen depends on the method and setting. In cells and extracts the contact can be indirect. These calls come from enrichment with a bait or labelling near it, and not all partners need be listed.

Sequences of proteins named here, by UniProt entry; tags and fusion partners are left off.
UniProt Q9Y6J0: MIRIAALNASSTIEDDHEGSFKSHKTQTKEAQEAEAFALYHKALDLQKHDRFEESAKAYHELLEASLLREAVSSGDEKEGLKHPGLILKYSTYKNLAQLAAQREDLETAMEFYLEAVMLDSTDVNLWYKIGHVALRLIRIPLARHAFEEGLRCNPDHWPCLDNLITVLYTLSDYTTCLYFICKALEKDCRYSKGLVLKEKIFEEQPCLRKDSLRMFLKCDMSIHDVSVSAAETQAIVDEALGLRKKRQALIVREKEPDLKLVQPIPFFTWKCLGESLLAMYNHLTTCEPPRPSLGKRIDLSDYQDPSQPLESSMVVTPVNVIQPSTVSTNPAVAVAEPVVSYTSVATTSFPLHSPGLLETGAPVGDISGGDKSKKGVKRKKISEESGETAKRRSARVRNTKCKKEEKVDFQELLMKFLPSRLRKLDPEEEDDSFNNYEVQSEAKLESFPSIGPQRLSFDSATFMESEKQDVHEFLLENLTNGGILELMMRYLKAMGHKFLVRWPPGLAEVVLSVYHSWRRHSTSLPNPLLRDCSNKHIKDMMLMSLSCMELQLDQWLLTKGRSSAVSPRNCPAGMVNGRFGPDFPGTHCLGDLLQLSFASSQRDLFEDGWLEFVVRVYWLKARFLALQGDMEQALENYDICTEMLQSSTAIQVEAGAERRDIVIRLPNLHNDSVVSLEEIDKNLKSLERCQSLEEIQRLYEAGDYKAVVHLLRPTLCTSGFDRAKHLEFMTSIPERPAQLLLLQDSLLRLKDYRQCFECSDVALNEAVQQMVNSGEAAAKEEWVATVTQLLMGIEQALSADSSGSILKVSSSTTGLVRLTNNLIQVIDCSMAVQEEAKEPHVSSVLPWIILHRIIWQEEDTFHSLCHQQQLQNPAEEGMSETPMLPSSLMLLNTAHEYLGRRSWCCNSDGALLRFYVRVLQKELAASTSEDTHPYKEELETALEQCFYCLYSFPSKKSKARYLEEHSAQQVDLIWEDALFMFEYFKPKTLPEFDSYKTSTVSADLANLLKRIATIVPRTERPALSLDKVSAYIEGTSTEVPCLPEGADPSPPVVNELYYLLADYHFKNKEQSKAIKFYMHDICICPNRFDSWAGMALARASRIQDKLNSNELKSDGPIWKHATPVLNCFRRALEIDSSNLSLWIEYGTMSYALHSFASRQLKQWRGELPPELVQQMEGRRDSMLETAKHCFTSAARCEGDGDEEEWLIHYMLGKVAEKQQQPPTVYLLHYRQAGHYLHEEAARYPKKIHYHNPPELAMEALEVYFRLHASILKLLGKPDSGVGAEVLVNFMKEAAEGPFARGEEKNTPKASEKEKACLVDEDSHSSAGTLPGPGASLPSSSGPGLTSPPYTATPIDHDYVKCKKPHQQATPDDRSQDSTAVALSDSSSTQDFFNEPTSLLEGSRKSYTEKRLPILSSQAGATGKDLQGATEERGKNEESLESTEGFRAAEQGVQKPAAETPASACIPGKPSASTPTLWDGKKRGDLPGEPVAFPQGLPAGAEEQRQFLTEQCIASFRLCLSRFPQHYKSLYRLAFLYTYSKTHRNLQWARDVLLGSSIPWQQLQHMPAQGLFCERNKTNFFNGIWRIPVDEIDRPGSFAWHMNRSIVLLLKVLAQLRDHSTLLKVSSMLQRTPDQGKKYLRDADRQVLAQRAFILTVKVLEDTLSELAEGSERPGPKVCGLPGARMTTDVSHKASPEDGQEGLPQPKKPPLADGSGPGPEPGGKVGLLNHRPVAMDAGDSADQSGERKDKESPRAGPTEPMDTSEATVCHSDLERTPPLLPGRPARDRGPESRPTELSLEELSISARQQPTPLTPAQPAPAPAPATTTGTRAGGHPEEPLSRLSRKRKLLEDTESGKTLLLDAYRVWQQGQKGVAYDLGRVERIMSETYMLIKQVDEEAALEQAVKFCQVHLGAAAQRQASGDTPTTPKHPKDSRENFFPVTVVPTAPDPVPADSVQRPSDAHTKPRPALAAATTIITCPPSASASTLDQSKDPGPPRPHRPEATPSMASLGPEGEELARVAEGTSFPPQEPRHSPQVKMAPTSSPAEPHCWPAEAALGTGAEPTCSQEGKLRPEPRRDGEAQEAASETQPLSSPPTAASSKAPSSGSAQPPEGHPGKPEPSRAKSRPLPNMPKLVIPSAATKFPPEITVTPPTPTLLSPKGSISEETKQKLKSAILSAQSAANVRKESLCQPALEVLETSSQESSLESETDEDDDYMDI
UniProt P54198: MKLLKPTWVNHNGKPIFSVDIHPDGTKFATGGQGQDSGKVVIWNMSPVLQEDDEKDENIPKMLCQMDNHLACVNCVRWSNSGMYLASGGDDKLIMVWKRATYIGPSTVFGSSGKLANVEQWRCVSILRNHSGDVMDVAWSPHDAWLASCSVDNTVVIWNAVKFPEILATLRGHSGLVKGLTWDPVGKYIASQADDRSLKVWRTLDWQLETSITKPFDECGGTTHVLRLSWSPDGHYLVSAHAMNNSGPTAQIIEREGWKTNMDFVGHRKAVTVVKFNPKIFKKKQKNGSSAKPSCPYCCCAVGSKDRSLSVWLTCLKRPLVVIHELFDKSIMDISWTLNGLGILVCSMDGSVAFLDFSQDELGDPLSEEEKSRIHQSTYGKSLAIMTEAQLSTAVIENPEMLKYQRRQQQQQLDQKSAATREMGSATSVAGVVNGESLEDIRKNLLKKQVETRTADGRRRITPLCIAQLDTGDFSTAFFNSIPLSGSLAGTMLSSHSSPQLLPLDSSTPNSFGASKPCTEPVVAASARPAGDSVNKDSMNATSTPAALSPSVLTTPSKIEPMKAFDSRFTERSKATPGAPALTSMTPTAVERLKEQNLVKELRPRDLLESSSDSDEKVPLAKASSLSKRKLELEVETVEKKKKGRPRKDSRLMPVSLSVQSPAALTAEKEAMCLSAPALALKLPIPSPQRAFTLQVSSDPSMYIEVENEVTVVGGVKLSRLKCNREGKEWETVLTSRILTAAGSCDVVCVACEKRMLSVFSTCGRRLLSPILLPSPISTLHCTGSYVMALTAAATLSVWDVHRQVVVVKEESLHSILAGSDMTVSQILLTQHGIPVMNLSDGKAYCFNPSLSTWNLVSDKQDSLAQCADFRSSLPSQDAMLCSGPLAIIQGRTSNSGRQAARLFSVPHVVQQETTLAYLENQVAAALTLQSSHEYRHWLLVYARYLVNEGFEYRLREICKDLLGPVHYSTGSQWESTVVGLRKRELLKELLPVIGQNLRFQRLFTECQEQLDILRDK
UniProt Q6ZU65: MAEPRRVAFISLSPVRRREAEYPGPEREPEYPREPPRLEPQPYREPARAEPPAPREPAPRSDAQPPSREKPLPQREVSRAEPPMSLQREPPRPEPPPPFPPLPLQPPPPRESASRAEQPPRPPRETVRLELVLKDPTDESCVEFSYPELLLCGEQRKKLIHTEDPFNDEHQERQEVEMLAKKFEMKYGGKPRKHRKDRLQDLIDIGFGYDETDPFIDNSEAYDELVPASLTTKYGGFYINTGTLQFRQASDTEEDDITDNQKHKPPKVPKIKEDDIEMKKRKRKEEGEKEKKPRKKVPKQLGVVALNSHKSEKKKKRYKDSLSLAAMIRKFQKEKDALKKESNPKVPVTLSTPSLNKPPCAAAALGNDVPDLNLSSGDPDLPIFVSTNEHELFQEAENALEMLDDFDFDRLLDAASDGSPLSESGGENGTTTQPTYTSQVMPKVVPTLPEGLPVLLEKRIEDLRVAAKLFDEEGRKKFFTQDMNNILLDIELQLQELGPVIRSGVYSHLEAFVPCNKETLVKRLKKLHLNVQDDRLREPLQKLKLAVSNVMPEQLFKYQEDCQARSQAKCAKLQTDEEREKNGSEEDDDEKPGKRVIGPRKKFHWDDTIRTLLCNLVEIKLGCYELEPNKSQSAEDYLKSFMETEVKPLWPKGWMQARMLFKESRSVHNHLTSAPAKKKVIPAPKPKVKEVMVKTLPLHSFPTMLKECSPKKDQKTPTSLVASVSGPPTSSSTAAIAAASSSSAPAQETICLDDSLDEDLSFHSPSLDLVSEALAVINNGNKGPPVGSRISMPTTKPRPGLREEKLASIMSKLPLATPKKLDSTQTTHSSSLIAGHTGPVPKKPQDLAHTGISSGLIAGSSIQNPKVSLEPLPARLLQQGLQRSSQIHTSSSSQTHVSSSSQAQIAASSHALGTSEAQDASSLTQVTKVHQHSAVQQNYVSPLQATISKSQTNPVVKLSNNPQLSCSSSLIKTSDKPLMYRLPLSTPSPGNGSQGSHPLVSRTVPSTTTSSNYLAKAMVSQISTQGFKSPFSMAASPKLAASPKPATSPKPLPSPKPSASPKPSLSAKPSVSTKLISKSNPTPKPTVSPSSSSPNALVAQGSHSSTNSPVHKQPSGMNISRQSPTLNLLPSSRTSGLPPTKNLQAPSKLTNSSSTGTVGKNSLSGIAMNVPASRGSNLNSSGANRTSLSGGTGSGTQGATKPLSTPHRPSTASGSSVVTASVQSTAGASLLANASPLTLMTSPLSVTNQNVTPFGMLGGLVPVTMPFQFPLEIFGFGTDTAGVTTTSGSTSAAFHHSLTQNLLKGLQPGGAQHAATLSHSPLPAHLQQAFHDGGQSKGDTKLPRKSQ
UniProt Q9NPI1: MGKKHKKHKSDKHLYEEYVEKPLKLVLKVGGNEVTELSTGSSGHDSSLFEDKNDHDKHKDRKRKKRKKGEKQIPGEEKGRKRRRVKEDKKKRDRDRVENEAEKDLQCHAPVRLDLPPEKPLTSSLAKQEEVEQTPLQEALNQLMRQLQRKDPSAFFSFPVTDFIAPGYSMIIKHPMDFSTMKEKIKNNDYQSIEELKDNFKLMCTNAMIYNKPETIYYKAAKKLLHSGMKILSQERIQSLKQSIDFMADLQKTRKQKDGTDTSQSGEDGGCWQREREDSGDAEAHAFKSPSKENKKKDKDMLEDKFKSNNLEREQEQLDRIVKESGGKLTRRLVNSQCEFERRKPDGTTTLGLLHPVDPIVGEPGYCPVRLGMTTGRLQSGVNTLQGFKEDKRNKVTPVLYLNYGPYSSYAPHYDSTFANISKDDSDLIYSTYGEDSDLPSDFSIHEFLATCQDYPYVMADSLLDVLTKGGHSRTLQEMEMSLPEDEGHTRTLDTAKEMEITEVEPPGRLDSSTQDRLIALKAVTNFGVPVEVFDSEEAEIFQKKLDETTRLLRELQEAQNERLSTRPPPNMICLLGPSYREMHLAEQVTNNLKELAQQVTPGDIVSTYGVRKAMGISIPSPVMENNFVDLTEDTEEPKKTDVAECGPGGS
UniProt Q8TAQ2: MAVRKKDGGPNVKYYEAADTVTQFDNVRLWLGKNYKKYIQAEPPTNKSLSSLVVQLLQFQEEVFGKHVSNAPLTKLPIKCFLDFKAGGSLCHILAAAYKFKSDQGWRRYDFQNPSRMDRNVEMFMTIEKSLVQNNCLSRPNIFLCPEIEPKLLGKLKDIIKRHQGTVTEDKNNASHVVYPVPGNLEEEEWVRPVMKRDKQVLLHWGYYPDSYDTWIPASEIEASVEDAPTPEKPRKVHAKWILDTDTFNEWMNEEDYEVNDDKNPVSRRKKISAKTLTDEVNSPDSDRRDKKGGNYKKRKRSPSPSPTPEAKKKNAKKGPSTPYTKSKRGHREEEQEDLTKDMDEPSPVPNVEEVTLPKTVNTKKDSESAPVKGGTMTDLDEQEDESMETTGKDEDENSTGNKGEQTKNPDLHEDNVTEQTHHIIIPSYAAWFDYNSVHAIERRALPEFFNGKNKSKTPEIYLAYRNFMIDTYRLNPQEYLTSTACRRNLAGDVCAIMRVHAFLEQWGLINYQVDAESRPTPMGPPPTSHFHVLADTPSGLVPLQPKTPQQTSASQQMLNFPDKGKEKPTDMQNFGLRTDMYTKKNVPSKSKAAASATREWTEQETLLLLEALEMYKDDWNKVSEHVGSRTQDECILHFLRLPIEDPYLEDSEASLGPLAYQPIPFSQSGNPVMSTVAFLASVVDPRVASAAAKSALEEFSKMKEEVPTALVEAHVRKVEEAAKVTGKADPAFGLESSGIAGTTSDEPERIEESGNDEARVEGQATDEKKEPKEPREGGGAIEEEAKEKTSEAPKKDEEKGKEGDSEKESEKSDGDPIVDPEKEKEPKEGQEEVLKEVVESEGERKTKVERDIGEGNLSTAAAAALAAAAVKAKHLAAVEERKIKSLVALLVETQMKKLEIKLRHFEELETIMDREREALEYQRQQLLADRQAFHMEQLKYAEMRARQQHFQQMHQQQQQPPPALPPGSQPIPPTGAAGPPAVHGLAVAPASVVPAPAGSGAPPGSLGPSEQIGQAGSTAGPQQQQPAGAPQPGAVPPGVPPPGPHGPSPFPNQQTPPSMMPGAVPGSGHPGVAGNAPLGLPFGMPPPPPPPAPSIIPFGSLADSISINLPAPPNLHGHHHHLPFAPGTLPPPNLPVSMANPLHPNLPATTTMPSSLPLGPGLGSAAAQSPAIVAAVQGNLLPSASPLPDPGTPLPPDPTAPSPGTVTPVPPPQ

target: T1, H2A.B N-terminal peptide phosphorylated at S9 (human); assay: affinity purification with mass spectrometry; SILAC: biotinylated unmodified or S9ph H2A.B N-terminal peptide on streptavidin beads, L428 nuclear extract, 2 h at 4 C, binding buffer with NP-40 reduced to 0.1%; washes with 350 mM NaCl; LC-MS/MS; only the target purified
T1 sequence (peptide, phosphoserine at S9; C-terminally biotinylated): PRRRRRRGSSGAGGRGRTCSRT

**Q.** How did the binding turn out when “CABIN1 (endogenous) (from UniProt Q9Y6J0 1-2220)” was run?
**A.** Its binding is “binds”.

**Q.** Which binding does the source give for “HIRA (endogenous) (from UniProt P54198 1-1017)” here?
**A.** The binding was “binds”.

**Q.** With “POLR1A/RPA194 (endogenous) (from UniProt O95602 1-1720)” as the substance, how does the binding read?
**A.** The binding was “binds”.

**Q.** Which binding does the source give for “POLR1C/RPA40 (endogenous) (from UniProt O15160 1-346)” here?
**A.** Its binding is “binds”.

**Q.** Which binding does the source give for “UBN1 (endogenous) (from UniProt Q9NPG3 1-1134)” here?
**A.** The binding was “binds”.

**Q.** “UBN2 (endogenous) (from UniProt Q6ZU65 1-1347)” was tested. Which binding did it give?
**A.** The binding was “binds”.

target: T2, H2A.B N-terminal peptide asymmetrically dimethylated at R7 (human); assay: affinity purification with mass spectrometry; SILAC: biotinylated unmodified, R7me, R7me2a or R15me H2A.B N-terminal peptides on streptavidin beads, L428 nuclear extract (0.6 mg/ml), 2 h at 4 C, 50 mM tris-HCl pH 8.0, 150 mM NaCl, 1% NP-40; washes with 350 mM NaCl; LC-MS/MS; only the target …
T2 sequence (peptide, asymmetric dimethylarginine (ADMA) at R7; C-terminally biotinylated): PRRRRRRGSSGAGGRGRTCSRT

**Q.** With “ACTL6A (endogenous) (from UniProt O96019 1-429)” as the substance, how does the binding read?
**A.** The binding was “binds”.

**Q.** “BRD7 (endogenous) (from UniProt Q9NPI1 1-651)” was tested. Which binding did it give?
**A.** The binding was “binds”.

**Q.** With “BRD9 (endogenous) (from UniProt Q9H8M2 1-597)” as the substance, how does the binding read?
**A.** Its binding is “binds”.

**Q.** With “BRM (endogenous) (from UniProt P51531 1-1590)” as the substance, how does the binding read?
**A.** The binding was “binds”.

**Q.** For “PBRM1 (endogenous) (from UniProt Q86U86 1-1689)”, which binding is on record?
**A.** Its binding is “binds”.

**Q.** How did the binding turn out when “SMARCC1 (endogenous) (from UniProt Q92922 1-1105)” was run?
**A.** Its binding is “binds”.

**Q.** “SMARCC2 (endogenous) (from UniProt Q8TAQ2 1-1214)” was tested. Which binding did it give?
**A.** The binding was “binds”.
